No constants are given. Whether binding was seen depends on the method and setting. Binding seen in cells or lysates may run through a third protein. Some entries that bind do so weakly or less than the wild type.
Key:
[1] = molecular target: GFP-tagged full-length N-WASP (UniProt O00401); assay: co-IP; GFP microbeads precipitate GFP-N-WASP and fragments ΔWA, WH1, WH1-GBD from HEK293T cell extracts; endogenous CRN7 detected with mAb K37-142-1; ratio of co-IP to IP
[2] = molecular target: GFP-N-WASP WH1 (WH1 domain only) (UniProt O00401); assay: as above

Amino acid sequences for entries named in this document (tags omitted). A change or cut given only in a name is not applied to a line headed by its entry. Residues count along the entry.
UniProt O00401: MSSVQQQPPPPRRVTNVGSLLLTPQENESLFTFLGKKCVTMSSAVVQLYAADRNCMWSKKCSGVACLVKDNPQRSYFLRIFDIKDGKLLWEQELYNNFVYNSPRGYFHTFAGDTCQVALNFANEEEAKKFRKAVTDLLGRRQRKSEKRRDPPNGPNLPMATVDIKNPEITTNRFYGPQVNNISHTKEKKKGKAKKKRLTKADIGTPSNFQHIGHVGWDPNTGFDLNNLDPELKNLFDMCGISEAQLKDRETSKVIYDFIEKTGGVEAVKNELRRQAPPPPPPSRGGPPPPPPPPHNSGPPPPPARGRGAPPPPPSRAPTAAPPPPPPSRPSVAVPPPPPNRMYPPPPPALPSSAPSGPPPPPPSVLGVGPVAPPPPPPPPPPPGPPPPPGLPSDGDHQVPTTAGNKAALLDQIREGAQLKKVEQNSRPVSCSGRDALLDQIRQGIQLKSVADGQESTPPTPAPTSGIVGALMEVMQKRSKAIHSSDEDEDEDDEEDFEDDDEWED
GFP-N-WASP WH1 (WH1 domain only): residues 34-141 of O00401

- binding [1]: binds weakly
- binding [2]: binds
B1: endogenous CRN7 (Coronin7) of HEK293T cells (protein, UniProt P57737 1-925)
chain: MNRFRVSKFRHTEARPPRRESWISDIRAGTAPSCRNHIKSSCSLIAFNSDRPGVLGIVPLQGQGEDKRRVAHLGCHSDLVTDLDFSPFDDFLLATGSADRTVKLWRLPGPGQALPSAPGVVLGPEDLPVEVLQFHPTSDGILVSAAGTTVKVWDAAKQQPLTELAAHGDLVQSAVWSRDGALVGTACKDKQLRIFDPRTKPRASQSTQAHENSRDSRLAWMGTWEHLVSTGFNQMREREVKLWDTRFFSSALASLTLDTSLGCLVPLLDPDSGLLVLAGKGERQLYCYEVVPQQPALSPVTQCVLESVLRGAALVPRQALAVMSCEVLRVLQLSDTAIVPIGYHVPRKAVEFHEDLFPDTAGCVPATDPHSWWAGDNQQVQKVSLNPACRPHPSFTSCLVPPAEPLPDTAQPAVMETPVGDADASEGFSSPPSSLTSPSTPSSLGPSLSSTSGIGTSPSLRSLQSLLGPSSKFRHAQGTVLHRDSHITNLKGLNLTTPGESDGFCANKLRVAVPLLSSGGQVAVLELRKPGRLPDTALPTLQNGAAVTDLAWDPFDPHRLAVAGEDARIRLWRVPAEGLEEVLTTPETVLTGHTEKICSLRFHPLAANVLASSSYDLTVRIWDLQAGADRLKLQGHQDQIFSLAWSPDGQQLATVCKDGRVRVYRPRSGPEPLQEGPGPKGGRGARIVWVCDGRCLLVSGFDSQSERQLLLYEAEALAGGPLAVLGLDVAPSTLLPSYDPDTGLVLLTGKGDTRVFLYELLPESPFFLECNSFTSPDPHKGLVLLPKTECDVREVELMRCLRLRQSSLEPVAFRLPRVRKEFFQDDVFPDTAVIWEPVLSAEAWLQGANGQPWLLSLQPPDMSPVSQAPREAPARRAPSSAQYLEEKSDQQKKEELLNAMVAKLGNREDPLPQDSFEGVDEDEWD

Reference: article PMC4855144
